Reference: PubChem BioAssay AID493014 (National Center for Advancing Translational Sciences (NCATS), 2011)
The list shows a part of the results. Further columns of the screen follow, without active or inactive calls. Compounds called inactive in the main read-out are mostly missing here. Potencies come from curve fits of mixed quality, noted in brackets.

Assay: qHTS Assay to Find Inhibitors of Chronic Active B-Cell Receptor Signaling
Conditions: ABC-DLBCL IkBa-CBG/CBR reporter, luminescence ratio (green luciferase fused to IkBa over red control in TMD8 lymphoma cells), 4 h
Outline: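 TMD8 human ABC-DLBCL cells with doxycycline-inducible IκBα–green luciferase fusion and unfused red luciferase, in 0.5% FBS medium; compounds up to 46 uM, 4 h at 37C. Green/red luminescence ratio, filter-overlap corrected, fitted to concentration-response curves.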

[1] = measured here: CBR red luminescence, cell number
[2] = measured here: IkBa-CBG green luminescence

Row | Compound | AC50 [1] | AC50 [2]
1 | CSc1nsc(/C=C/Nc2ccc(O)cc2C)c1C#N | 6.31 µM [rising, single point] | 
2 | CCOC(=O)c1c(C)[nH]c(C(=O)N/N=C/c2ccc(Br)cc2)c1C | 4.11 µM [rising, partial curve] | 1.84 µM [falling, full curve]
3 | CSc1cccc(NC(=O)/C=C/c2ccccc2)c1 | 11.2 µM [falling, partial curve] | 
4 | CCOC(=O)C1=CC[C@H]2c3c(c4ccccc4n3C)C[C@H]1N2C | 29.1 µM [falling, single point] | 
5 | COC(=O)Cc1ccc(NC(=O)c2cccs2)cc1 | 13 µM [falling, partial curve, poor fit] | 
6 | c1csc(C(c2nnnn2C2CCCC2)N2CCOCC2)c1 (stereo not drawn) | 2 µM [rising, full curve, poor fit] | 
7 | COCCNS(=O)(=O)c1cc2[nH]c3c(c2cc1C)C(=O)CC(C)(C)C3 | 10 µM [rising, single point] | 
8 | COc1ccc(C)cc1-n1c(SCC(=O)Nc2cccc(C(=O)O)c2)nc2ccccc2c1=O | 6.31 µM [rising, full curve, poor fit] | 
9 | CCOC(=O)c1c(/N=C/c2cc(C)ccc2O)sc2c1CCN(C)C2 | 0.103 µM [falling, full curve, poor fit] | 
10 | Cc1ccc(NC(=O)c2nc[nH]c2C(=O)N2CCN(c3ccccc3)CC2)cc1 | 2.24 µM [rising, partial curve] | 
11 | COc1ccc2c(c1)cc1n2CCN=C1NN | 0.103 µM [rising, full curve, poor fit] | 
12 | CCOC(=O)c1ccc(N2N=C(C)/C(=C/C=C/c3ccco3)C2=O)cc1 | 0.731 µM [falling, full curve] | 
13 | CN(C)CCn1c2c(c(SCC(=O)Nc3cccc(C(F)(F)F)c3)nc1=O)CCCC2 | 6.51 µM [falling, partial curve, poor fit] | 
14 | O=S(=O)(N/N=C/c1ccccc1OCc1ccc(Cl)cc1)c1ccccc1 |  | 20.6 µM [falling, single point]
15 | CCOC(=O)c1cc2c(=O)n3ccccc3nc2n(Cc2ccco2)c1=NC(=O)c1cccc(Br)c1 | 22.4 µM [falling, partial curve, poor fit] | 
16 | CCN(CC)CCNCc1ccc(-c2ccc(Cl)cc2)o1 | 11.2 µM [falling, partial curve, poor fit] | 
17 | O=C(Nc1ccc(C(=O)O)cc1)/C(=C\C=C\c1ccccc1)NC(=O)c1ccccc1Br | 10 µM [falling, partial curve, poor fit] | 
18 | COC(=O)c1sccc1NC(=O)Nc1cccc(OC)c1 | 1.26 µM [falling, full curve] | 
19 | CN(C)c1ccc(CNC(=O)c2ccc(CNc3c(N4CCCCC4)c(=O)c3=O)cc2)cc1 | 8.2 µM [rising, partial curve] | 
20 | CC(C)c1nc2ccc(C(=O)O)cc2[nH]1 | 18.4 µM [falling, partial curve, poor fit] | 
21 | O=C(CSc1ccccn1)N/N=C/C=C/c1ccccc1 | 0.92 µM [rising, full curve, poor fit] | 

Row | Compound | AC50 [1] | AC50 [2]
22 | NC(=O)NC(=O)C(c1ccccc1)N1CCN(S(=O)(=O)c2ccc(Br)s2)CC1 (stereo not drawn) | 16.4 µM [falling, partial curve] | 
23 | CCOC(=O)/C=c1\s/c(=C\c2ccccc2C)c(=O)n1CC(=O)NCc1ccc2c(c1)OCO2 | 29.1 µM [rising, single point] | 23.1 µM [falling, single point]
24 | Cc1cccc(OCc2nnc(SCCC(=O)O)n2-c2ccccc2)c1 | 0.1 µM [rising, full curve, poor fit] | 
25 | COc1cc2c(cc1OC)C(c1cc(Br)ccc1F)N(C(=O)CCl)CC2 (stereo not drawn) | 11.2 µM [rising, partial curve, poor fit] | 22.4 µM [falling, single point]
26 | O=C(NCc1ccco1)C1c2ccccc2Oc2ccccc21 | 20 µM [falling, single point] | 
27 | COc1ccc2c(c1)C(=O)C(=O)N2CCS(=O)(=O)c1ccccc1 | 35.5 µM [falling, single point] | 
28 | CCOC(=O)c1[nH]c(C)c(C(=O)/C=C/c2ccc(C(=O)O)cc2)c1C | 35.5 µM [falling, single point] | 
29 | CCCCc1nc(Cl)c(C#N)c2c1CSC(C)(C)C2 | 7.31 µM [rising, partial curve, poor fit] | 
30 | CC(C)(O)CC[C@@H](O)[C@](C)(O)C1CC[C@@]2(O)C3=CC(=O)[C@]4(O)C[C@@H](O)[C@@H](O)C[C@]4(C)C3CC[C@]12C (stereo partly drawn) | 0.259 µM [rising, full curve, poor fit] | 
31 | Cc1ccc(NC(=O)C2CC(=O)N(c3ccc4c(c3)OCCO4)C2)cc1S(=O)(=O)N1CCCCCC1 (stereo not drawn) | 29.1 µM [falling, single point] | 
32 | CCCCn1cnc2c(c(-c3ccccc3)c(-c3ccccc3)n2Cc2ccco2)c1=N | 35.5 µM [falling, single point] | 
33 | N#Cc1c(N2CCN(C(=O)c3ccccc3)CC2)nc(-c2ccccc2)c2c1CCCC2 | 29.1 µM [falling, single point] | 
34 | CC1CCc2c(sc(NC(=O)CSc3nc(N)cc(=O)[nH]3)c2C(N)=O)C1 (stereo not drawn) | 13 µM [rising, partial curve] | 20.6 µM [falling, partial curve]
35 | N#CCO/N=C/C(=O)Nc1ccc(F)cc1F | 6.31 µM [falling, partial curve, poor fit] | 
36 | COc1ccc(Nc2nc(N)nc(CCl)n2)cc1 | 15.8 µM [rising, single point] | 35.5 µM [falling, partial curve, poor fit]
37 | COc1ccccc1NC(=O)Cn1ncc2c1-c1ccccc1OC2 | 18.4 µM [falling, single point] | 
38 | COc1ccc(-c2nn(-c3ccccc3)cc2C(=O)Nc2nccs2)cc1OC | 1.46 µM [falling, full curve] | 0.517 µM [rising, full curve, poor fit]
39 | O=C1C=C(c2cccc3c2sc2ccccc23)C[C@@H](c2ccc(F)cc2)C1 | 29.1 µM [rising, single point] | 
40 | CCOC(=O)N/N=C/C=C/c1ccccc1 | 29.1 µM [falling, single point] | 
41 | CC1CCCCN1CCCNc1ccc(C(CC(N)=O)NC(=O)Cc2cccc3ccccc23)cc1[N+](=O)[O-] (stereo not drawn) | 3.16 µM [falling, single point] | 
42 | CC(=O)c1ccc(NC(=S)Nc2cccc3ccccc23)cc1 | 3.16 µM [falling, full curve, poor fit] | 

Of the compounds above, these have fluorine:
Row | Compound | AC50 [1] | AC50 [2]
13 | CN(C)CCn1c2c(c(SCC(=O)Nc3cccc(C(F)(F)F)c3)nc1=O)CCCC2 | 6.51 µM [falling, partial curve, poor fit] | 
25 | COc1cc2c(cc1OC)C(c1cc(Br)ccc1F)N(C(=O)CCl)CC2 (stereo not drawn) | 11.2 µM [rising, partial curve, poor fit] | 22.4 µM [falling, single point]
35 | N#CCO/N=C/C(=O)Nc1ccc(F)cc1F | 6.31 µM [falling, partial curve, poor fit] | 
39 | O=C1C=C(c2cccc3c2sc2ccccc23)C[C@@H](c2ccc(F)cc2)C1 | 29.1 µM [rising, single point] | 

Following part.

Row | Compound | AC50 [1] | AC50 [2]
43 | O=C(N/N=C/c1cccc(OC(=O)c2ccco2)c1)c1ccc(F)cc1 | 14.6 µM [falling, partial curve, poor fit] | 
44 | O=C1N=C(N2CCOCC2)S/C1=C/c1cc2c(cc1[N+](=O)[O-])OCO2 | 7.94 µM [falling, partial curve] | 
45 | CNC(=O)CSc1nnc(-c2ccc(S(=O)(=O)N3CCCC3)cc2)n1-c1cccc(C)c1C | 0.651 µM [falling, partial curve, poor fit] | 
46 | C/C(=N/Nc1nc(-c2ccccc2)cc(-c2ccccc2)n1)c1ccc(N)cc1 | 6.51 µM [falling, partial curve] | 
47 | COc1cc(C(=O)N2CCN(c3cccc(C)c3C)CC2)cc(OC)c1OC | 16.4 µM [rising, partial curve] | 11.6 µM [falling, partial curve]
48 | COc1ccc(NS(=O)(=O)c2cc(NC(=O)c3ccc(C)s3)ccc2N2CCOCC2)cc1 | 20 µM [rising, partial curve, poor fit] | 
49 | COc1ccc(C(=O)N/N=C(\C)CC(=O)Nc2ccccn2)cc1OC | 1 µM [falling, full curve, poor fit] | 
50 | O=C1NC(c2ccccc2)C(C(=O)c2cccs2)=C1O (stereo not drawn) | 20.6 µM [falling, partial curve, poor fit] | 
51 | COCCNC(=O)c1cn(Cc2c(F)cccc2Cl)nn1 | 10 µM [rising, partial curve, poor fit] | 
52 | COc1ccc(S(=O)(=O)Nc2c(C)cccc2C)cc1-n1cnnn1 | 35.5 µM [falling, single point] | 
53 | COc1ccc(NC(=O)c2cccs2)cc1 | 32.6 µM [falling, single point] | 
54 | O=C(NCCNS(=O)(=O)c1ccccc1)c1cc(OCC(F)(F)F)ccc1OCC(F)(F)F | 14.1 µM [rising, single point] | 
55 | COc1ccc(C)c2sc(=NC(=O)c3ccccc3)n(C)c12 | 16.4 µM [falling, partial curve] | 
56 | CCc1nonc1NC(=O)c1oc2cc(C)c(C)cc2c1C | 3.98 µM [rising, full curve, poor fit] | 
57 | COc1ccccc1C(=O)NNC(=O)c1ccccc1F | 18.4 µM [falling, partial curve] | 
58 | CCOC(=O)C(Cc1ccccc1)NC(=O)Cn1nnc(-c2ccc(SC)cc2)n1 (stereo not drawn) | 0.1 µM [falling, full curve, poor fit] | 
59 | C/C(=N\NC(=O)c1ccc2ccccc2c1)c1cccs1 | 22.4 µM [falling, single point] | 
60 | C/C(CC(=O)Nc1cc(C)ccn1)=N\NC(=O)c1ccccc1C | 2.82 µM [falling, full curve] | 
61 | CC(=O)c1c(C)nn(C(=O)c2cccs2)c1C | 29.1 µM [rising, single point] | 
